# Laboratory results as given in doi:10.1101/2022.09.05.506649.
# Amino acid sequences for entries named in this document (tags omitted). Residues count along the entry.
# UniProt P0CS90, residues 24-654: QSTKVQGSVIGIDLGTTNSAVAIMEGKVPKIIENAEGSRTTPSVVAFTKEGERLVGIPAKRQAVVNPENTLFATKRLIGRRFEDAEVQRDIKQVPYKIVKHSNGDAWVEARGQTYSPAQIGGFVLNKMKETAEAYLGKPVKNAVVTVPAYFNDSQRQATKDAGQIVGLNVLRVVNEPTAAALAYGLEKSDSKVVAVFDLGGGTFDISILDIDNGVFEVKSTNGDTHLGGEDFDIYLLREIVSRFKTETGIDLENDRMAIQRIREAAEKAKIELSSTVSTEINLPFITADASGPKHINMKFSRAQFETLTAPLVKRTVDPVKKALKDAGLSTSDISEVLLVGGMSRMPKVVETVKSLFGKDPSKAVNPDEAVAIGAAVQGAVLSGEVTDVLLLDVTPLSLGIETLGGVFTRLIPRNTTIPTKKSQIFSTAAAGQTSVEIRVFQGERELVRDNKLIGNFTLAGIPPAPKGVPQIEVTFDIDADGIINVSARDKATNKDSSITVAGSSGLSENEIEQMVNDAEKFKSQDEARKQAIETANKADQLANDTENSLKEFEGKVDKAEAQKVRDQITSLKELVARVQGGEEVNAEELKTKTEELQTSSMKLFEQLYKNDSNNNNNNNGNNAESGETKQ
# Results are given in words; binding and its absence hold for the method and conditions named. Binding seen in cells or lysates may run through a third protein. Some results given as binding are weak or reduced against the parent protein; the word gives no strength.
# Target: mitochondrial Hsp70 (mtHsp70), Ssc1, the major mtHsp70 in yeast (S. cerevisiae (endogenous in yeast mitochondria)) (UniProt P0CS90)
# Assay: co-IP
row,binding,Binder
1,binds,"Tim17 (protein, UniProt P39515 1-158) MSADHSRDPCPIVILNDFGGAFAMGAIGGVVWHGIKGFRNSPLGERGSGAMSAIKARAPVLGGNFGVWGGLFSTFDCAVKAVRKREDPWNAIIAGFFTGGALAVRGGWRHTRNSSITCACLLGVIEGVGLMFQRYAAWQAKPMAPPLPEAPSSQPLQA"
2,binds,"Hep1, a dedicated chaperone for mtHsp70 (protein, UniProt P42844 48-174) NEVKKDDKKVHLGSFKVDKPKMMIAFTCKKCNTRSSHTMSKQAYEKGTVLISCPHCKVRHLIADHLKIFHDHHVTVEQLMKANGEQVSQDVGDLEFEDIPDSLKDVLGKYAKNNSENASQLPHPSQK"
3,binds,"Tim14 (protein, UniProt Q07914 1-168) MSSQSNTGNSIEAPQLPIPGQTNGSANVTVDGAGVNVGIQNGSQGQKTGMDLYFDQALNYMGEHPVITGFGAFLTLYFTAGAYKSISKGLNGGKSTTAFLKGGFDPKMNSKEALQILNLTENTLTKKKLKEVHRKIMLANHPDKGGSPFLATKINEAKDFLEKRGISK"
